The list shows only some results of the screen, not a fair sample: it gathers tests that were run many times, whatever their T/C, doses with no T/C, and many T/C values between a quarter and a half above the control. Further doses and runs are listed elsewhere. T/C is the treated group as % of the vehicle group. Some doses have a count of surviving animals in place of a T/C: the source files T/C as zero there, which appears to mark a toxic dose or a test without result, not a measured value. Some survivor counts are full or nearly so, which does not show that the dose was tolerated: survival well below the control is almost never listed, so the zero probably covers shortened survival too. Survivors were counted at the toxicity check, usually on the fifth day, unless a day is given; later deaths do not show. Schedules are NCI's codes, taken here to give the interval after Q, in days (D) or hours (H), and the number of doses after X. Some schedule codes hold Z or #, which are not explained here. Where survival is the endpoint, the PubChem record calls one and a half times the control and up active, and a quarter to a half above the control has no call in these data; cut-offs in other NCI protocols can differ. Some T/C values are followed by the survivors on the day toxicity was checked, most often the fifth; without a count, all were alive then. Some entries hold several experiments; the results are listed from low to high.
Test system: L1210 leukemia ip in BDF1 mice, survival T/C
Assay: NCI In Vivo Anticancer Drug Screen. Data for tumor model L1210 Leukemia (intraperitoneal) in B6D2F1 (BDF1) mice
Details: T/C endpoint: mean survival time, higher T/C = longer survival
[1] = dose: 20.0 mg/kg/injection, schedule: Q01DX009 (ip), vehicle: saline with Tween-80
[2] = dose: 40.0 mg/kg/injection, schedule: Q01DX001 (ip), vehicle: saline
[3] = dose: 50.0 mg/kg/injection, schedule: Q04DX002 (ip), vehicle: saline
[4] = dose: 100.0 mg/kg/injection, schedule: Q04DX002 (ip), vehicle: saline
[5] = dose: 200.0 mg/kg/injection, schedule: Q04DX002 (ip), vehicle: saline
[6] = dose: 400.0 mg/kg/injection, schedule: Q04DX003 (ip), vehicle: saline
[7] = dose: 200.0 mg/kg/injection, schedule: Q01DX009 (ip), vehicle: saline
[8] = dose: 400.0 mg/kg/injection, schedule: Q01DX009 (ip), vehicle: Klucel (hydroxypropylcellulose) (HPC)
[9] = dose: 100.0 mg/kg/injection, schedule: Q04DX002 (ip), vehicle: Klucel (hydroxypropylcellulose) (HPC)
[10] = dose: 200.0 mg/kg/injection, schedule: Q04DX002 (ip), vehicle: Klucel (hydroxypropylcellulose) (HPC)
[11] = dose: 400.0 mg/kg/injection, schedule: Q04DX002 (ip), vehicle: Klucel (hydroxypropylcellulose) (HPC)

CC(C)C1CCC2(CC1)CC(=O)N(CCC[N+](C)(C)C)C(=O)C2
survivor count (dose: 100.0 mg/kg/injection, schedule: Q01DX001 (ip), vehicle: carboxymethylcellulose (CMC)): 2 of 4 | survivor count (dose: 200.0 mg/kg/injection, schedule: Q01DX001 (ip), vehicle: carboxymethylcellulose (CMC)): 0 of 4 | survivor count (dose: 400.0 mg/kg/injection, schedule: Q01DX001 (ip), vehicle: carboxymethylcellulose (CMC)): 0 of 4

CC(=O)O[C@H]1[C@H]2O[C@]23[C@@H]2CC[C@]4(O)C[C@@H](O)CC[C@]4(C)[C@H]2CC[C@]3(C)[C@H]1c1ccc(=O)oc1
survivor count (dose: 400.0 mg/kg/injection, schedule: Q01DX001 (ip), vehicle: other): 3 of 6

CN(C)n1cc(C#N)c(=O)[nH]c1=O
survivor count (dose: 400.0 mg/kg/injection, schedule: Q04DX003 (ip), vehicle: Klucel (hydroxypropylcellulose) (HPC)): 4 of 6

O=C1OC(=O)C2C3C=CC(C4C=CC43)C12 (configuration not stated)
survivor count (dose: 400.0 mg/kg/injection, schedule: Q01DX009 (ip), vehicle: saline): 2 of 6 | survivor count (dose: 400.0 mg/kg/injection, schedule: Q04DX002 (ip), vehicle: saline with Tween-80): 1 of 3

O=C1C=C(O)C(=O)C=C1O
survivor count [1]: 4 of 6 | survivor count (dose: 25.0 mg/kg/injection, schedule: Q04DX002 (ip), vehicle: saline): 1 of 3 | survivor count (dose: 25.0 mg/kg/injection, schedule: Q04DX003 (ip), vehicle: saline): 3 of 6 | survivor count [2]: 3 of 6 | survivor count [3]: 1 of 3 | survivor count (dose: 50.0 mg/kg/injection, schedule: Q04DX003 (ip), vehicle: saline): 2 of 6 | survivor count (dose: 80.0 mg/kg/injection, schedule: Q01DX001 (ip), vehicle: saline): 0 of 6 | survivor count [4]: 0 of 3 | survivor count (dose: 100.0 mg/kg/injection, schedule: Q04DX003 (ip), vehicle: saline): 0 of 6 | survivor count [5]: 0 of 3 | survivor count (dose: 200.0 mg/kg/injection, schedule: Q04DX003 (ip), vehicle: saline): 0 of 6 | survivor count (dose: 400.0 mg/kg/injection, schedule: Q04DX002 (ip), vehicle: saline): 0 of 3 | survivor count [6]: 0 of 6

CCCCCCCCCCCCCCCCN1CCCN(CCCCCCCCCCCCCCCC)CC1
T/C [3]: 88, 91, 113 % of control | survivor count [3]: 3 of 3 | T/C [4]: 91, 95, 100 % of control [5 of 6 alive] | survivor count [4]: 3 of 3 | survivor count [7]: 6 of 6 | T/C [5]: 89, 91 [5 of 6 alive], 95 % of control | survivor count [5]: 3 of 3

C/C(=N/N=C(N)N)c1cccc(O)c1
survivor count (dose: 60.0 mg/kg/injection, schedule: Q01DX Z (oral), vehicle: methylcellulose (MC)): 3 of 6 | survivor count (dose: 120.0 mg/kg/injection, schedule: Q01DX Z (ip), vehicle: methylcellulose (MC)): 0 of 6 | survivor count (dose: 120.0 mg/kg/injection, schedule: Q01DX Z (oral), vehicle: methylcellulose (MC)): 3 of 6 | survivor count (dose: 240.0 mg/kg/injection, schedule: Q01DX Z (oral), vehicle: methylcellulose (MC)): 1 of 6

CC[NH-].[Cl][Pt+2][Cl].[NH2-]
T/C (dose: 1.5 mg/kg/injection, schedule: Q01DX009 (ip), vehicle: other): 127 % of control | T/C (dose: 6.0 mg/kg/injection, schedule: Q01DX001 (ip), vehicle: other): 131 % of control

O=C(Cl)OCC(Cl)(Cl)Cl
survivor count [8]: 0 of 6

O=C(Nc1cccc(O)c1)Nc1cc([N+](=O)[O-])ccc1F
T/C [9]: 96, 98, 103, 125 % of control | T/C [10]: 95, 96, 97, 102 % of control | T/C [11]: 93, 100, 105, 118 % of control

O=C(O)CC(=O)c1ccc(I)cc1
survivor count (dose: 150.0 mg/kg/injection, schedule: Q01DX001 (ip), vehicle: saline): 0 of 6 | survivor count (dose: 300.0 mg/kg/injection, schedule: Q01DX001 (ip), vehicle: saline): 0 of 6

CCCN(C(=O)CCl)c1ccccc1
survivor count [9]: 2 of 3 | survivor count [10]: 1 of 3 | survivor count [11]: 0 of 3

COc1cc(C(=O)OCCN(C(C)C)C(C)C)cc(OC)c1OC
survivor count [6]: 2 of 6

C(CSC1=NCCN1)CSC1=NCCN1
survivor count [6]: 0 of 6

Cc1cc(Cl)ccc1NC(=O)Oc1cc(C)c(Cl)c(C)c1Cl
T/C (dose: 100.0 mg/kg/injection, schedule: Q01DX009 (ip), vehicle: saline with Tween-80): 93, 103, 105, 108 % of control | survivor count (dose: 400.0 mg/kg/injection, schedule: Q01DX009 (ip), vehicle: saline with Tween-80): 1 of 3

CCC(=O)OCN1C(=O)C2C3CCC(O3)C2C1=O (configuration not stated)
survivor count (dose: 350.0 mg/kg/injection, schedule: Q01DX009 (ip), vehicle: other): 0 of 6

Cn1cccc1/C=C/[N+](=O)[O-]
survivor count (dose: 200.0 mg/kg/injection, schedule: Q01DX001 (ip), vehicle: saline): 4 of 4 | survivor count (dose: 400.0 mg/kg/injection, schedule: Q01DX001 (ip), vehicle: saline): 2 of 4

O=C(COCC(=O)N/N=C/c1ccc(Cl)cc1Cl)N/N=C\c1cc(Cl)cc(Cl)c1
survivor count [8]: 5 of 6

C(=C(\C[P+](c1ccccc1)(c1ccccc1)c1ccccc1)c1ccccc1)/c1ccccc1
survivor count (dose: 10.0 mg/kg/injection, schedule: Q01DX009 (ip), vehicle: saline with Tween-80): 3 of 6 | survivor count (dose: 10.0 mg/kg/injection, schedule: Q04DX003 (ip), vehicle: saline with Tween-80): 6 of 6 | survivor count [1]: 2 of 6 | survivor count (dose: 100.0 mg/kg/injection, schedule: Q04DX003 (ip), vehicle: saline with Tween-80): 0 of 6 | survivor count (dose: 200.0 mg/kg/injection, schedule: Q04DX003 (ip), vehicle: saline with Tween-80): 0 of 6 | survivor count (dose: 400.0 mg/kg/injection, schedule: Q04DX003 (ip), vehicle: saline with Tween-80): 0 of 6

CN(C)C(=S)NNC(=O)c1ccc(Cl)cc1
survivor count (dose: 100.0 mg/kg/injection, schedule: Q01DX001 (ip), vehicle: saline with Tween-80): 0 of 6 | survivor count (dose: 200.0 mg/kg/injection, schedule: Q01DX001 (ip), vehicle: saline with Tween-80): 0 of 6 | survivor count (dose: 400.0 mg/kg/injection, schedule: Q01DX001 (ip), vehicle: saline with Tween-80): 0 of 6

CC(=O)Oc1c(C(C)(C)C)cc([N+](=O)[O-])c(C)c1[N+](=O)[O-]
survivor count [9]: 0 of 3 | survivor count [10]: 0 of 3 | survivor count [11]: 0 of 3

CCOc1ccc(CC(=O)Nc2cc([N+](=O)[O-])ccc2NCCN(CC)CC)cc1
survivor count (dose: 200.0 mg/kg/injection, schedule: Q04DX003 (ip), vehicle: other): 2 of 6 | survivor count (dose: 400.0 mg/kg/injection, schedule: Q04DX003 (ip), vehicle: other): 1 of 6

C=CCN(CC=C)C(=S)[S-].C=CCN(CC=C)C(=S)[S-].[Zn]
survivor count (dose: 20.0 mg/kg/injection, schedule: Q04DX003 (ip), vehicle: saline): 5 of 6 | survivor count [2]: 0 of 6 | survivor count (dose: 75.0 mg/kg/injection, schedule: Q01DX001 (ip), vehicle: acetone): 0 of 6 | survivor count (dose: 150.0 mg/kg/injection, schedule: Q01DX001 (ip), vehicle: acetone): 0 of 6 | survivor count (dose: 300.0 mg/kg/injection, schedule: Q01DX001 (ip), vehicle: acetone): 0 of 6

c1ccc([P+](Cc2ccc3ccccc3n2)(c2ccccc2)c2ccccc2)cc1
survivor count (dose: 50.0 mg/kg/injection, schedule: Q01DX009 (ip), vehicle: saline): 0 of 3 | survivor count (dose: 100.0 mg/kg/injection, schedule: Q01DX009 (ip), vehicle: saline): 0 of 3 | survivor count [7]: 0 of 3

Reference: PubChem BioAssay AID248 (DTP/NCI, 2004)
